The list shows a part of the results.
What was measured:
Assay in all cases: glycan array binding signal (z-score within array); higher = stronger binding
Conditions in all cases: glycan notation: IUPAC condensed, linker removed
[1] = molecular target: Neu5Ac(a2-3)Gal(b1-3)GalNAc
Method in brief: (§1)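 Columns mapping to the same glycan were averaged after glycan names were converted to IUPAC-condensed notation. The data come from 3228 arrays in the Consortium for Functional Glycomics database, limited to those with an available protein sequence. Binding is reported as a within-array Z-score averaged across arrays of one protein sequence and across linkers.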

[2] = molecular target: Neu5Ac(a2-3)Gal(b1-3)GalNAc(b1-3)Gal(a1-4)Gal(b1-4)Glc
Method in brief: as §1

[3] = molecular target: Neu5Ac(a2-3)Gal(b1-3)GalNAc(b1-4)Gal(b1-4)Glc
Method in brief: as §1

[4] = molecular target: Neu5Ac(a2-3)Gal(b1-3)GalNAc(b1-4)[Neu5Ac(a2-3)]Gal(b1-4)Glc
Method in brief: as §1

[5] = molecular target: Neu5Ac(a2-3)Gal(b1-3)GalNAc(b1-4)[Neu5Ac(a2-8)Neu5Ac(a2-3)]Gal(b1-4)Glc
Method in brief: as §1

[6] = molecular target: Neu5Ac(a2-3)Gal(b1-3)GalNAc6S
Method in brief: as §1

[7] = molecular target: Neu5Ac(a2-3)Gal(b1-3)GlcNAc
Method in brief: as §1

[8] = molecular target: Neu5Ac(a2-3)Gal(b1-3)GlcNAc(b1-2)Man
Method in brief: as §1

[9] = molecular target: Neu5Ac(a2-3)Gal(b1-3)GlcNAc(b1-2)Man(a1-3)[GlcNAc(b1-4)][Neu5Ac(a2-3)Gal(b1-3)GlcNAc(b1-2)Man(a1-6)]Man(b1-4)GlcNAc(b1-4)GlcNAc
Method in brief: as §1

[10] = molecular target: Neu5Ac(a2-3)Gal(b1-3)GlcNAc(b1-2)Man(a1-3)[Neu5Ac(a2-3)Gal(b1-3)GlcNAc(b1-2)Man(a1-6)]Man(b1-4)GlcNAc(b1-4)GlcNAc
Method in brief: as §1

[11] = molecular target: Neu5Ac(a2-3)Gal(b1-3)GlcNAc(b1-2)[Neu5Ac(a2-3)Gal(b1-3)GlcNAc(b1-4)]Man(a1-6)[Neu5Ac(a2-3)Gal(b1-3)GlcNAc(b1-2)Man(a1-3)]Man(b1-4)GlcNAc(b1-4)GlcNAc
Method in brief: as §1

[12] = molecular target: Neu5Ac(a2-3)Gal(b1-3)GlcNAc(b1-3)Gal(b1-3)GlcNAc
Method in brief: as §1

[13] = molecular target: Neu5Ac(a2-3)Gal(b1-3)GlcNAc(b1-3)Gal(b1-4)GlcNAc
Method in brief: as §1

[14] = molecular target: Neu5Ac(a2-3)Gal(b1-3)GlcNAc(b1-3)GalNAc
Method in brief: as §1

[15] = molecular target: Neu5Ac(a2-3)Gal(b1-3)GlcNAc(b1-6)GalNAc
Method in brief: as §1

[16] = molecular target: Neu5Ac(a2-3)Gal(b1-3)GlcNAc6S
Method in brief: as §1

[17] = molecular target: Neu5Ac(a2-3)Gal(b1-3)[Fuc(a1-4)]GlcNAc
Method in brief: as §1

[18] = molecular target: Neu5Ac(a2-3)Gal(b1-3)[Fuc(a1-4)]GlcNAc(b1-3)Gal(b1-3)[Fuc(a1-4)]GlcNAc
Method in brief: as §1

[19] = molecular target: Neu5Ac(a2-3)Gal(b1-3)[Fuc(a1-4)]GlcNAc(b1-3)Gal(b1-4)[Fuc(a1-3)]GlcNAc
Method in brief: as §1

[20] = molecular target: Neu5Ac(a2-3)Gal(b1-3)[GlcNAc(b1-6)]GalNAc
Method in brief: as §1

[21] = molecular target: Neu5Ac(a2-3)Gal(b1-3)[Neu5Ac(a2-6)]GalNAc
Method in brief: as §1

[22] = molecular target: Neu5Ac(a2-3)Gal(b1-3)[Neu5Ac(a2-6)]GlcNAc(b1-3)[Fuc(a1-3)[Gal(b1-4)]GlcNAc(b1-6)]Gal(b1-4)Glc
Method in brief: as §1

B1: Mincle (Bos taurus) (protein)
chain: MNSSTSPASQTERRCFSFQLFSWAIAGTSILLLSACFITRCVVTYSIFQLCDEKKFQPPGDSMELSCYNDGSGSVKNCCPLKWFHFQSSCYLFSPDTMSWRASLKNCSSMGAHLVVINTQEEQEFLYYTKPRKKEFYIGLTDQVTEGQWQWVDGTPFTKSLSFWDAGEPNNLVIVEDCATIRDSSNPRQNWNDVPCFFNMFRVCEMPERKI
glycan array binding signal (z-score) [1]: -0.278 | glycan array binding signal (z-score) [2]: -0.361 | glycan array binding signal (z-score) [3]: -1.13 | glycan array binding signal (z-score) [4]: 0.393 | glycan array binding signal (z-score) [5]: -1.38 | glycan array binding signal (z-score) [6]: -0.583 | glycan array binding signal (z-score) [7]: -0.043 | glycan array binding signal (z-score) [8]: -0.913 | glycan array binding signal (z-score) [9]: 0.328 | glycan array binding signal (z-score) [10]: 0.811 | glycan array binding signal (z-score) [11]: -0.268 | glycan array binding signal (z-score) [12]: -1.03 | glycan array binding signal (z-score) [13]: -0.331 | glycan array binding signal (z-score) [14]: -0.599 | glycan array binding signal (z-score) [15]: -0.473 | glycan array binding signal (z-score) [16]: 1.11 | glycan array binding signal (z-score) [17]: 0.299 | glycan array binding signal (z-score) [18]: -1.55 | glycan array binding signal (z-score) [19]: -0.451 | glycan array binding signal (z-score) [20]: -0.595 | glycan array binding signal (z-score) [21]: -0.943 | glycan array binding signal (z-score) [22]: 0.667
